The text below walks through data of the supplement of paper PMC10849652.

Sequences of proteins named here, by UniProt entry; tags and fusion partners are left off. A change or cut given only in a name is not applied to a line headed by its entry.
UniProt Q01780: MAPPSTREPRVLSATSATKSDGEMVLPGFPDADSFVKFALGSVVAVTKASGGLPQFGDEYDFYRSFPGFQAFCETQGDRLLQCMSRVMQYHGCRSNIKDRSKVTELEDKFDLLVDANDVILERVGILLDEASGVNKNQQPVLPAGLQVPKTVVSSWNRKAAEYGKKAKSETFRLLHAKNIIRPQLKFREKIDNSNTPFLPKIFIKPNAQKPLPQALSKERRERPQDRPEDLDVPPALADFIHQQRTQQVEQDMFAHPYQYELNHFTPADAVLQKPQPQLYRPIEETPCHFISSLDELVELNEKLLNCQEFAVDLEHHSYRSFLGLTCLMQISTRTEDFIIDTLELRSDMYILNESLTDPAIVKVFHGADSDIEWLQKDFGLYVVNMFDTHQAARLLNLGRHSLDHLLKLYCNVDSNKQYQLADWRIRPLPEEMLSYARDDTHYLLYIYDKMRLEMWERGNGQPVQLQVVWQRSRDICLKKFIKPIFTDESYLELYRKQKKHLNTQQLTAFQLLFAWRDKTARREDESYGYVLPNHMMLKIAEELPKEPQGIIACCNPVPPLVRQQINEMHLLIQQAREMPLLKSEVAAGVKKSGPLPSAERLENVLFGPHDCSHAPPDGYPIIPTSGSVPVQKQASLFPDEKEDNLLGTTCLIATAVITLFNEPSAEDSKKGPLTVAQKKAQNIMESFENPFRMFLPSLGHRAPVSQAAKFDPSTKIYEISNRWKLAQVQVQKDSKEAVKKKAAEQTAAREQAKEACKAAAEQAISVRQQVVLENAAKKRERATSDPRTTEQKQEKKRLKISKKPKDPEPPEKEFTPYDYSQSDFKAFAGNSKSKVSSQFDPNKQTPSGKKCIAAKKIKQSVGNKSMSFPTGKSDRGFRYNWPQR
UniProt Q92817: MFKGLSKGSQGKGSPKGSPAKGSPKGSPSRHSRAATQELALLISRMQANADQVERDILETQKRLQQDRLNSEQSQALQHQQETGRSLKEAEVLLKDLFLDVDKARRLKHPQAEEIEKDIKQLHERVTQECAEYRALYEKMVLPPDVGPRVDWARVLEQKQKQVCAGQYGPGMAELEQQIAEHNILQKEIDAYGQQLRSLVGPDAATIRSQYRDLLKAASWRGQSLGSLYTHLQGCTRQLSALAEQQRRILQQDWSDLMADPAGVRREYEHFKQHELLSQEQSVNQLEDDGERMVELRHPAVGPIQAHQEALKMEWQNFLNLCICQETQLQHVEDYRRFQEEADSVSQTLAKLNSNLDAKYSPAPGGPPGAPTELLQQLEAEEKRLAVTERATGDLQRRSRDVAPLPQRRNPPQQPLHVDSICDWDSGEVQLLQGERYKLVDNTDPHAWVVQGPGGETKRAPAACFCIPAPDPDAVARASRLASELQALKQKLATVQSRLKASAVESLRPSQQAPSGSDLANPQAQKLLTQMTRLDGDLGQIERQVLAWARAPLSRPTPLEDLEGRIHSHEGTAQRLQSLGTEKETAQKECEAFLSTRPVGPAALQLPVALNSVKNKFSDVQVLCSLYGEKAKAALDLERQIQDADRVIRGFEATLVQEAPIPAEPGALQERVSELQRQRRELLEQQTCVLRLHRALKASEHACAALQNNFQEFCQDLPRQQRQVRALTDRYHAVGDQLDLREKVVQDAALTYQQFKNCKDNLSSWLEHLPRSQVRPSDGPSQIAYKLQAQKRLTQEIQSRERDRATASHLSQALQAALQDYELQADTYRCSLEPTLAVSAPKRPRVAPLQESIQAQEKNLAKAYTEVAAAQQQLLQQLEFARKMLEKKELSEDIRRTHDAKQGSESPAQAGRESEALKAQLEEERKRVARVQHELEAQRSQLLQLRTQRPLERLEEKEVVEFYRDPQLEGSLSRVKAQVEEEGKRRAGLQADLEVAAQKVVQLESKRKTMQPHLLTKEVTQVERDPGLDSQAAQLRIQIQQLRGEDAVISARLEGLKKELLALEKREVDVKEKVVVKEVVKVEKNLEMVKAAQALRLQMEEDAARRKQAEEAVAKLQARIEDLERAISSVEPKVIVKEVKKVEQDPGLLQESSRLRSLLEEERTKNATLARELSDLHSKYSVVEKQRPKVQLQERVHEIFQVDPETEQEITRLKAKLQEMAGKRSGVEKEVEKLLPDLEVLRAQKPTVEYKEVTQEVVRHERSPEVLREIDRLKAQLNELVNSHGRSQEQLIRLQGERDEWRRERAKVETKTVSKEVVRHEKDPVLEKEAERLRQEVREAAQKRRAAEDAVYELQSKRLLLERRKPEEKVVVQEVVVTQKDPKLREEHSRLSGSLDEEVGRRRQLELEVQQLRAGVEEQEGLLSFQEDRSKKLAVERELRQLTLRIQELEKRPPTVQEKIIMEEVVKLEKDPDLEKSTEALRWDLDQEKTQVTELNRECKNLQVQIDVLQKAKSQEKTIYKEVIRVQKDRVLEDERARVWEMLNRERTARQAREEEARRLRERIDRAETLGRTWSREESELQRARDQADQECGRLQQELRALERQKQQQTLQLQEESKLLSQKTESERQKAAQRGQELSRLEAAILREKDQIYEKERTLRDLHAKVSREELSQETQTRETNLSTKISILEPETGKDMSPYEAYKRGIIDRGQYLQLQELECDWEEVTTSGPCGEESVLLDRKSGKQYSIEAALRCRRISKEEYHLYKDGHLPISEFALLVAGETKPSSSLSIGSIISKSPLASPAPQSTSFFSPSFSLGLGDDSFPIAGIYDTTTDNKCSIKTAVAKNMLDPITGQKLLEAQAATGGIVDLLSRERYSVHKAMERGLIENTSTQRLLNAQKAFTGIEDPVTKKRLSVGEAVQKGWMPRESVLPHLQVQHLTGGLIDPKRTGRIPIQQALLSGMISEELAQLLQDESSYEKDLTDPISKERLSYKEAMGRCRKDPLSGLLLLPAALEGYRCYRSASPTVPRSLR
UniProt Q9H098: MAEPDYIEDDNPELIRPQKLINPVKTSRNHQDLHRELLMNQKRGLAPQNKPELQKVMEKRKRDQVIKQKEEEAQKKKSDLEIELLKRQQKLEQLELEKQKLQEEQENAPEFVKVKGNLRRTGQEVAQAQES
UniProt P05413, whole entry, looked up: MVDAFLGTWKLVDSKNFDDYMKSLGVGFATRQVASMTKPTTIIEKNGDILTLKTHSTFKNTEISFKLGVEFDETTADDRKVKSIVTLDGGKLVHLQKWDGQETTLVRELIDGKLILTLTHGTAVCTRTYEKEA
UniProt P07992: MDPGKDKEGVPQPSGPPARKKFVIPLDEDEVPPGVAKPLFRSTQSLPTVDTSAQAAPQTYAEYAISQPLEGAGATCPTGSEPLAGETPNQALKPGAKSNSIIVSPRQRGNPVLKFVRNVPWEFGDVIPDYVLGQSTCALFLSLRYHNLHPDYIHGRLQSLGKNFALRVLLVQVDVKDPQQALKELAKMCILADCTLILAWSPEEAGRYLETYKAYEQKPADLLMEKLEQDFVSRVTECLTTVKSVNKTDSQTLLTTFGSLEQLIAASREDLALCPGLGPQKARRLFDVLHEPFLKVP
UniProt P50548: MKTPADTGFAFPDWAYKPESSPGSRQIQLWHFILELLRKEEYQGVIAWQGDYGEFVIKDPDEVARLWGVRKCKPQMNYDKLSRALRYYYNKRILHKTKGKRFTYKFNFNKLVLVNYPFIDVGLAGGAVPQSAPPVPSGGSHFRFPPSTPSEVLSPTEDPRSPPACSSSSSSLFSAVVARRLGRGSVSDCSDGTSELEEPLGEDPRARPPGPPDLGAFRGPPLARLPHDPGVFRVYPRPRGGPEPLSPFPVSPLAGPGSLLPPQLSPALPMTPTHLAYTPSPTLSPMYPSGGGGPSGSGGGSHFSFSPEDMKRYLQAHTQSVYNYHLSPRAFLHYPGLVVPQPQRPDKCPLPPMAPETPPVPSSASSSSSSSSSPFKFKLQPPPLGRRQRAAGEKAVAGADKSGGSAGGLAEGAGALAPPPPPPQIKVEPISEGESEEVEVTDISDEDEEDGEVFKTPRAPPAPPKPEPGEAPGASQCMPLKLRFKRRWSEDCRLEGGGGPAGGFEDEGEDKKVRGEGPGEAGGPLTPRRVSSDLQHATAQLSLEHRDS
UniProt Q9NVM1: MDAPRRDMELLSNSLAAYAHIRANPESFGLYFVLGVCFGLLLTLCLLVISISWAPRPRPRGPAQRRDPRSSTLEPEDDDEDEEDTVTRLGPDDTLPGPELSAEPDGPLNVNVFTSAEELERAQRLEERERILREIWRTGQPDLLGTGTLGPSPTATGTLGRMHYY
UniProt Q9H790: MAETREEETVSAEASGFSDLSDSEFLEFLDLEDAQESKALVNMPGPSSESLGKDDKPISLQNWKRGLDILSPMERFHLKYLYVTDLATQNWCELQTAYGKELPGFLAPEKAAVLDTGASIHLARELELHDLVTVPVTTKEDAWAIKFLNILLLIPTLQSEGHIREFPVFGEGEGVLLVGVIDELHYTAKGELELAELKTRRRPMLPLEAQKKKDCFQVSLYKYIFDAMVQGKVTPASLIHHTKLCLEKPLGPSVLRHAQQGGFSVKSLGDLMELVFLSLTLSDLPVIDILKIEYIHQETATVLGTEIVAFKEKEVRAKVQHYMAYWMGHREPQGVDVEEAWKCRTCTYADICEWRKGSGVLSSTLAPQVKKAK
UniProt Q9BQ89: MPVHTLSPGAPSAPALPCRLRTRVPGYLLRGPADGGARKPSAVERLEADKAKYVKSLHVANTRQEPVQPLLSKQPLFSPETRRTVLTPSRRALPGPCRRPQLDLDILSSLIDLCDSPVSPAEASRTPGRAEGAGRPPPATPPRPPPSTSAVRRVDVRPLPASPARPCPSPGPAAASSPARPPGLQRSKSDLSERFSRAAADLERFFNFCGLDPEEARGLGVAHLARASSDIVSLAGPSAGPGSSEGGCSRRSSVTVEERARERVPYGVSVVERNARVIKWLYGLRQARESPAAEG
UniProt Q86V87: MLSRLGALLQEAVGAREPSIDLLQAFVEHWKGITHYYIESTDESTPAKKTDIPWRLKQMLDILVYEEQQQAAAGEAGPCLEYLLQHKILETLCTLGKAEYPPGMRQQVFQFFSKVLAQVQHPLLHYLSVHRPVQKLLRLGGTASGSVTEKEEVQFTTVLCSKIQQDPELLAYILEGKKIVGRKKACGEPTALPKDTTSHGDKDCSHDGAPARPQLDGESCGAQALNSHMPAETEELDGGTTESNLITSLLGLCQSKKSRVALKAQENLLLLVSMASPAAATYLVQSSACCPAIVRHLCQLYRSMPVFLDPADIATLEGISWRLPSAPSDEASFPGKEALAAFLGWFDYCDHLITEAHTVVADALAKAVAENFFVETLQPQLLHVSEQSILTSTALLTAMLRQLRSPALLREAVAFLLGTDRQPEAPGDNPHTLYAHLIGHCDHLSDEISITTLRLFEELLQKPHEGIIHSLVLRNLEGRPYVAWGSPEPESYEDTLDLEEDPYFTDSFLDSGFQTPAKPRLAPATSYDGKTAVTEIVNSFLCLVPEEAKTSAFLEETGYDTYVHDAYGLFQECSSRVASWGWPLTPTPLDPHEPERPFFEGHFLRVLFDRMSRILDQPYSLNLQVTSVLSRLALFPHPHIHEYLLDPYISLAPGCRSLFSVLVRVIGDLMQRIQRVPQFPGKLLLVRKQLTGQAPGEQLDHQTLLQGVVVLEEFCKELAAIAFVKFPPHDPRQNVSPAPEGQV

The other results are listed elsewhere or left out.

What all share (test): log2 fold change, soluble protein after heating vs DMSO (PISA); higher = thermal stabilisation; K562 cells, 10 uM, 30 min; active = over 0.2 and 3.5 SD of the protein, either way, in both replicates (recomputed)
Compound in one experiment: Cc1ccc(NC(=O)c2ccc(CN3CC[C@H](N(C)C)C3)c(C(F)(F)F)c2)cc1Nc1nccc(-c2cncnc2)n1 [bafetinib]
In a few lines:
(§1)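 K562 cells at 2×10^6 cells/mL were treated with 10 μM compound for 30 min. Aliquots were heated for 3 min across 48°C-58°C, pooled, and extracted in PBS with 0.5% NP-40 at 4°C; soluble protein was the supernatant after 21,000xg for 90 min. Soluble protein was quantified by TMTpro 16plex LC-MS/MS with channel sums equalised, and reported as log2 fold change in thermal stability against DMSO controls, with values from duplicates.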

Compound in experiment [1]: Cc1cccc(CC(=O)N2CCc3c2ccc(-c2cn(C)c4ncnc(N)c24)c3F)n1
The method, boiled down:
as §1

Compound in a further experiment: Cc1nc(Nc2ncc(C(=O)Nc3c(C)cccc3Cl)s2)cc(N2CCN(CCO)CC2)n1 [dasatinib]
In a few lines: as §1

Compound in experiment [2]: Cn1cc(-c2ccc3c(c2)CCN3C(=O)Cc2cccc(C(F)(F)F)c2)c2c(N)ncnc21
In a few lines: as §1

Compound in experiment [3]: Cn1cc(-c2ccc3nnc(C(F)(F)c4ccc5ncccc5c4)n3n2)cn1
In a few lines: as §1

Compound in a further experiment: Cn1cncc1[C@@](N)(c1ccc(Cl)cc1)c1ccc2c(c1)c(-c1cccc(Cl)c1)cc(=O)n2C [tipifarnib]
The method, boiled down: as §1

Compound in a further experiment: FC(F)(F)c1ccc(/C=C/c2nc(COc3ccc(CCCCn4ccnn4)cc3)co2)cc1 [mubritinib]
The method, boiled down: as §1

Compound in experiment [4]: NC(=O)Nc1cc(-c2cccc(F)c2)sc1C(=O)N[C@H]1CCCNC1
In a few lines:
as §1

Compound in experiment [5]: NC(=O)c1cnc(N[C@@H]2CCCC[C@@H]2N)nc1Nc1cccc(-n2nccn2)c1
The method, boiled down: as §1

Compound in experiment [6]: NC1(c2ccc(-c3nc4ccn5c(=O)[nH]nc5c4cc3-c3ccccc3)cc2)CCC1
The method, boiled down: as §1

Compound in experiment [7]: NCC(=O)Nc1ccc(-n2nc(C(F)(F)F)cc2-c2ccc3c(ccc4ccccc43)c2)cc1
The method, boiled down: as §1

Compound in a further experiment: Nc1ccccc1NC(=O)c1ccc(CNC(=O)OCc2cccnc2)cc1 [entinostat]
In a few lines: as §1

Compound in the next experiment: O=C(CCCCCCC(=O)Nc1ccccc1)NO [vorinostat]
The method, boiled down:
as §1

Compound in the next experiment: O=C(CCCCCCNC(=O)c1cnc(N(c2ccccc2)c2ccccc2Cl)nc1)NO [citarinostat]
The method, boiled down: as §1

Compound in the next experiment: O=C(O)c1ccc2c(c1)nc(Nc1cccc(Cl)c1)c1ccncc12 [silmitasertib]
The method, boiled down: as §1

Compound in experiment [8]: O=C1NC(=O)C(c2cnc3ccccn23)=C1c1cn2c3c(cc(F)cc13)CN(C(=O)N1CCCCC1)CC2
In a few lines:
as §1

Compound in experiment [9]: c1cc(OCCN2CCCCC2)cc(-c2n[nH]c3ccc(-c4nnc[nH]4)cc23)c1
The method, boiled down:
as §1

Compound in another experiment: Cc1cn(-c2cc(NC(=O)c3ccc(C)c(Nc4nccc(-c5cccnc5)n4)c3)cc(C(F)(F)F)c2)cn1 [nilotinib]
In a few lines:
as §1

Compound in experiment [10]: Cc1nc(Nc2n[nH]c3c2CN(C(=O)N[C@H](CN(C)C)c2ccccc2)C3(C)C)c2sccc2n1
The method, boiled down:
as §1

Compound in experiment [11]: Cc1ncc(-c2ccnc(Nc3ccc(S(C)(=O)=O)cc3)n2)n1C(C)C
The method, boiled down: as §1

In the case of EXOSC10 (UniProt Q01780), the log2 fold change is active: -0.63 in the experiment with bafetinib; inactive: 0 in [1]; inactive: 0.017 with dasatinib; inactive: 0.152 in experiment [2]; inactive: 0.251 in experiment [3]; inactive: 0.195 with tipifarnib. Besides, the log2 fold change in the experiment with mubritinib is inactive: 0.046; in experiment [4] it was inactive: -0.49; in experiment [5] it was inactive: -0.054; in experiment [6] it was inactive: 0.014; in experiment [7], inactive: -0.189; in the experiment with entinostat, inactive: -0.339. For the same target, the log2 fold change is inactive: 0.039 in the experiment with vorinostat; inactive: -0.125 with citarinostat; inactive: 0.041 in the experiment with silmitasertib; inactive: -0.044 in [8]; inactive: 0.01 in experiment [9].

Turning to FAM172A (UniProt Q8WUF8), the log2 fold change with bafetinib was inactive: -0.02; in [1], inactive: -0.087; with nilotinib, inactive: -0.082; in experiment [10] it was inactive: 0.042; in experiment [11], inactive: -0.119; in experiment [2], inactive: 0.139. In addition, the log2 fold change in the experiment with mubritinib is inactive: -0.053; in experiment [4], inactive: 0.104; in [6], inactive: -0.063; in experiment [7] it was inactive: 0.087; with entinostat it was inactive: -0.097; in the experiment with vorinostat, inactive: -0.018. Further, the log2 fold change with citarinostat is inactive: -0.065; with silmitasertib, inactive: -0.103; in experiment [8] it was inactive: -0.056; in [9], inactive: 0.024.

Consider EVPL (UniProt Q92817), for which the log2 fold change in experiment [1] is inactive: 0; with nilotinib, inactive: 0.18; in experiment [10], inactive: -0.05; in experiment [11], inactive: -0.191; in [3], inactive: 0.02; in the experiment with mubritinib it was inactive: -0.142. Moreover, the log2 fold change was inactive: -0.376 in experiment [4]; inactive: 0.039 in experiment [6]; inactive: -0.258 in the experiment with entinostat; inactive: 0.173 with vorinostat; inactive: 0.048 in the experiment with citarinostat; inactive: 0.151 with silmitasertib. Moreover, the log2 fold change in experiment [9] was inactive: -0.216.

On to FAM107B isoform 2 (UniProt Q9H098), for which the log2 fold change in experiment [1] was inactive: -0.032; with dasatinib, inactive: 0.005; in experiment [7], inactive: -0.096; in the experiment with vorinostat, inactive: 0.047; in [8], inactive: -0.075.

In the case of FABP3 (UniProt P05413), the log2 fold change is inactive: 0.308 in [5], inactive: 0.248 with citarinostat and inactive: -0.055 in experiment [9].

In the case of FAM120B (UniProt Q96EK7), the log2 fold change was inactive: 0.367 in experiment [1]; inactive: -0.434 in [5]; inactive: 0.133 with vorinostat; inactive: -0.106 with citarinostat; inactive: -0.001 in experiment [9].

As to FADS2 (UniProt O95864), the values for the log2 fold change (in [1]; in the experiment with vorinostat) were inactive: -0.346 and inactive: 0.531, respectively.

With EPHB4 (UniProt P54760), the log2 fold change was inactive: -0.051 in [3]; inactive: -0.257 in the experiment with tipifarnib; inactive: 0.176 in the experiment with mubritinib; inactive: -0.207 in [4]; inactive: -0.102 in experiment [6]; inactive: 0.122 with entinostat. The log2 fold change in the experiment with silmitasertib was inactive: 0.18.

Turning to FAM171A2 (UniProt A8MVW0), the log2 fold change in experiment [1] is inactive: -0.044; in experiment [3] it was inactive: -0.155; with vorinostat, inactive: -0.04.

As to FAM178B (UniProt Q8IXR5), the log2 fold change in experiment [1] is inactive: -0.028; in the experiment with vorinostat it was inactive: -0.15.

Consider EPG5 (UniProt Q9HCE0), for which the log2 fold change in the experiment with dasatinib was inactive: -0.138; in experiment [3], inactive: -0.013; in experiment [4], inactive: -0.214; with entinostat it was inactive: 0.022; in experiment [8] it was inactive: 0.

As to ERCC1 isoform 3 (UniProt P07992), the log2 fold change with dasatinib is inactive: -0.191; in experiment [2], inactive: 0.191; in [3], inactive: 0; with tipifarnib, inactive: -0.211; in experiment [4], inactive: -0.339; with entinostat it was inactive: -0.077.

For ERF (UniProt P50548), the log2 fold change in experiment [1] is inactive: 0.194; in experiment [4], inactive: -0.53; in the experiment with entinostat, inactive: -0.019; with vorinostat, inactive: 0.023; in [8] it was inactive: -0.273.

Consider EPS15L1 (UniProt M0QY01), for which the log2 fold change is inactive: 0.005 in [4], inactive: 0.122 in experiment [7], inactive: -0.001 with entinostat and inactive: -0.007 in [8].

On to EPC1 (UniProt Q9H2F5), for which the log2 fold change in experiment [3] is inactive: 0.136; in the experiment with mubritinib it was inactive: -0.47; in [6], inactive: 0.408; with silmitasertib, inactive: 0.391.

Regarding EVA1B (UniProt Q9NVM1), the log2 fold change in the experiment with mubritinib is inactive: -0.313; in experiment [6], inactive: -0.117; with silmitasertib, inactive: 0.111.

In the case of FAM122B isoform 2 (UniProt Q7Z309), the log2 fold change was inactive: 0.031 in [2]; inactive: -0.015 with mubritinib; inactive: 0.006 in [6]; inactive: -0.149 in the experiment with citarinostat; inactive: -0.076 with silmitasertib; inactive: -0.054 in experiment [9].

As to EXO5 (UniProt Q9H790), the values for the log2 fold change (in experiment [4]; with entinostat) were inactive: -0.051 and inactive: 0.004, respectively.

For FAM110A (UniProt Q9BQ89), the log2 fold change in experiment [1] is inactive: 0.005; in the experiment with vorinostat, inactive: 0.058; in experiment [8], inactive: -0.15.

FAM126A (UniProt Q9BYI3): the log2 fold change in experiment [3] was inactive: 0.085; in the experiment with mubritinib, inactive: 0.041; in [5], inactive: -0.047; in experiment [6], inactive: -0.035; with citarinostat, inactive: 0.083; with silmitasertib, inactive: -0.006. For the same target, the results for the log2 fold change in [8] and in experiment [9] were inactive: 0.183 and inactive: -0.097, respectively.

Turning to F13B (UniProt P05160), the log2 fold change in experiment [2] is inactive: -0.002; in experiment [7] it was inactive: -0.004.

For the target FAM160B2 (UniProt Q86V87), the log2 fold change was inactive: 0 in [1]; inactive: 0.065 in experiment [2]; inactive: -0.074 with mubritinib; inactive: 0.138 in experiment [6]; inactive: 0.153 with vorinostat; inactive: -0.164 with citarinostat. Also, the log2 fold change with silmitasertib is inactive: 0.158; in experiment [9], inactive: -0.074.

Turning to EYA3 (UniProt Q99504), the log2 fold change in [1] is inactive: 0.053; in experiment [2], inactive: 0.149; in the experiment with mubritinib, inactive: -0.157; in [5], inactive: -0.387; in experiment [6], inactive: 0.217; in [7], inactive: -0.049. The log2 fold change in the experiment with vorinostat is inactive: -0.068; with silmitasertib it was inactive: -0.137.
